Results deposited as PubChem BioAssay AID1259308 (NCATS, 2017).

Screen: 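Candidate targets for better recombinant protein yield in mammalian cells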 (primary screen)
Cells: human HEK293 embryonic kidney cells stably expressing firefly luciferase (HEK-CMV-Luc2-Hygro)
Knock-down reagent: single siRNA against human genes, 0.8 pmol siRNA per well
Timing: 72 h
Measured: 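Reporter luminescence and viable-cell signal on separate replicate plates, given as percent of non-targeting control and median/MAD z-scores, plus per-cell luciferase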
Direction: total luciferase, z-score and total luciferase, % of control: higher = more reporter protein produced; luciferase per cell, z-score: higher = more reporter output per viable cell; viable cells, % of control: higher = more viable cells
Rule for the call: 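An siRNA counts as active if its total luciferase robust z-score exceeds 3; genes with two or more such siRNAs out of three were retested with fresh siRNAs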
Meaning of the calls: active = raised luciferase; inactive = no rise
Here is an unselected part of about 59,000 reagents. About 1,510 of all reagents (2.6%) were called active. 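Calls use total luciferase alone and ignore viability, so some active siRNAs may act by altering cell number.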 Reagents against one gene are numbered here. Reagent sequences are not shown.

| gene symbol | reagent no. | total luciferase, z-score | total luciferase, % of control | luciferase per cell, z-score | viable cells, % of control | call |
| --- | --- | --- | --- | --- | --- | --- |
| ZDHHC19 | 1 | -0.874 | 64.5 | -1.62 | 110 | inactive |
| ZDHHC19 | 2 | -0.524 | 71.5 | -0.793 | 98.4 | inactive |
| ZDHHC19 | 3 | -0.91 | 63.8 | -1.02 | 93.2 | inactive |
| NLRP3 | 1 | -1.67 | 48.6 | -1.18 | 74.1 | inactive |
| NLRP3 | 2 | -0.477 | 72.4 | -0.708 | 97.5 | inactive |
| NLRP3 | 3 | -1.12 | 59.5 | 0.000347 | 66.5 | inactive |
| COL12A1 | 1 | 0.308 | 88 | 0.256 | 91.9 | inactive |
| COL12A1 | 2 | -0.00431 | 81.8 | 0.681 | 76.4 | inactive |
| COL12A1 | 3 | 1.55 | 113 | 1.74 | 79.6 | inactive |
| TRIM6 | 1 | -0.125 | 79.4 | 0.45 | 78.8 | inactive |
| TRIM6 | 2 | -1.45 | 53 | -1.53 | 88.7 | inactive |
| TRIM6 | 3 | -0.0339 | 81.2 | -0.42 | 101 | inactive |
| OR6N2 | 1 | 0.175 | 85.4 | 0.188 | 90.8 | inactive |
| OR6N2 | 2 | 0.935 | 100 | 0.403 | 101 | inactive |
| OR6N2 | 3 | -2.19 | 38.3 | -1.89 | 70.5 | inactive |

2 entries already listed, ordered by “total luciferase, % of control”, highest first:
| gene symbol | reagent no. | total luciferase, z-score | total luciferase, % of control | luciferase per cell, z-score | viable cells, % of control | call |
| --- | --- | --- | --- | --- | --- | --- |
| TRIM6 | 1 | -0.125 | 79.4 | 0.45 | 78.8 | inactive |
| TRIM6 | 2 | -1.45 | 53 | -1.53 | 88.7 | inactive |

Next entries follow:
| gene symbol | reagent no. | total luciferase, z-score | total luciferase, % of control | luciferase per cell, z-score | viable cells, % of control | call |
| --- | --- | --- | --- | --- | --- | --- |
| XPO6 | 1 | 0.204 | 86 | -0.221 | 102 | inactive |
| XPO6 | 2 | -0.351 | 74.9 | -0.535 | 96.4 | inactive |
| XPO6 | 3 | -1.32 | 55.7 | -0.857 | 78 | inactive |
| KHDRBS3 | 1 | 1.2 | 106 | 1.59 | 77.8 | inactive |
| KHDRBS3 | 2 | -0.885 | 64.3 | 0.548 | 62.2 | inactive |
| KHDRBS3 | 3 | -1.23 | 57.5 | -0.662 | 76.5 | inactive |
| TANC2 | 1 | 0.679 | 95.4 | 0.488 | 93.7 | inactive |
| TANC2 | 2 | -0.312 | 75.7 | 0.266 | 78.9 | inactive |
| TANC2 | 3 | 1.98 | 121 | 1.09 | 102 | inactive |
